Reference: patent publication US20020123481A1
Results are given in words; binding and its absence hold for the method and conditions named. Some results given as binding are weak or reduced against the parent protein; the word gives no strength.

Molecular target: c-Fos Induced Growth Factor (FIGF), mouse, encoded by Fos regulated gene F0401 (mouse) (UniProt P97946)
Test: SDS-PAGE of immunoprecipitated FIGF: multimeric form under non-denaturing conditions, mostly a 66 kDa band and a minor 33 kDa monomer with beta-mercaptoethanol

binding: binds
B1: c-Fos Induced Growth Factor (FIGF), mouse, encoded by Fos regulated gene F0401 (ligand)
chain: FRSEHGPVKDFSFERSSRSMLERSEQQIRAASSLEELLQIAHSEDWKLWRCRLKLKSLASMDSRSASHRSTRFAATFYDTETLKVIDEEWQRTQCSPRETCVEVASELGKTTNTFFKPPCVNVFRCGGCCNEEGVMCMNTSTSYISKQLFEISVPLTSVPELVPVKIANHTGCKCLPTGPRHPYSIIRRSIQTPEEDECPHSKKLCPIDMLWDNTKCKCVLQDETPLPGTEDHSYLQEPTLCGPHMTFDEDRCECVCKAPCPGDLIQHPENCSCFECKESLESCCQKHKIFHPDTCSCEDRCPFHTRTCASRKPACGKHWRFPKETRAQGLYSQENP
